Assay results as given in PubChem BioAssay AID445 (National Center for Advancing Translational Sciences (NCATS), 2006).
This is one part of the list. The main result of the screen is listed elsewhere. These columns were measured beside it and carry no call. Most of these compounds were active or inconclusive in the main read-out, so they are no random draw. Potencies come from curve fits of mixed quality, noted in brackets.

Assay: IkB Signaling
Conditions: ABC-DLBCL IkBa-CBG/CBR dual luciferase ratio (green luciferase fused to IkBa over red control in OCI-Ly3 lymphoma cells), 4 h; measured here: control luc red channel unless noted
Procedure, shortened: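 Luminescence ratio of IκBα-fused green versus native red beetle luciferase in OCI-Ly3 cells, 4 h post-doxycycline with compound; red signal alone, scaled from basal (0%) to zero light (-100%), flagged nonspecific or cytotoxic effects.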

Question: With COc1ccc(C)cc1NC(=O)CCC(=O)Nc1ccc2nc(N3CCN(C)CC3)cc(C)c2c1 as the compound, how does the AC50 read?
Answer: 15.8 µM [falling, partial curve]

Question: Which AC50 does the source give for CCc1ccccc1-n1c(C)nc2cc(C(=O)NCCc3ccc(Cl)cc3)ccc21 here?
Answer: 31.6 µM [falling, single point]

Question: With Cc1ccc(-n2ncc(C(=O)NCCN3CCCC3)c2C2CCN(C(=O)OC(C)(C)C)CC2)cc1C as the compound, how does the AC50 read?
Answer: 15.8 µM [falling, partial curve]

Question: With COc1cccc(-c2cc(C(=O)Nc3c(C)nn(Cc4ccccc4C)c3C)no2)c1 as the compound, how does the AC50 read?
Answer: 10 µM [falling, partial curve]

Question: With CC(=O)Nc1cccc(NC(=O)c2c(-c3ccccc3Cl)noc2C)c1 as the compound, how does the AC50 read?
Answer: 12.6 µM [falling, partial curve]

Question: Which AC50 does the source give for COc1ccc(OC)c2sc(N3CCN(C(=O)CCS(=O)(=O)c4ccc(F)cc4)CC3)nc12 here?
Answer: 39.8 µM [falling, single point]

Question: Which AC50 does the source give for COC(=O)c1ccc2c(c1)N(Cc1ccc(Cl)cc1)C(=O)c1ccccc1S2 here?
Answer: 12.6 µM [falling, partial curve]

Question: For CC1CCN(CCCNC(=O)c2coc3nc4ccccc4nc23)CC1, which AC50 is on record?
Answer: 7.94 µM [falling, partial curve]

Question: With Cc1oc(-c2cccc(Cl)c2)nc1CN1CCCC(C(=O)NC(C)c2ccc3c(c2)OCCO3)C1 (centres undefined) as the compound, how does the AC50 read?
Answer: 25.1 µM [falling, partial curve]

Question: Which AC50 does the source give for CC1=CC(C)(C)N2C(=O)C3(SCC(=O)N3c3ccc(O)cc3)c3cc(C)cc1c32 (centres undefined) here?
Answer: 20 µM [falling, partial curve]

Question: With CCOc1ccc(CCNc2ncnc3onc(-c4ccc(Cl)cc4)c23)cc1OCC as the compound, how does the AC50 read?
Answer: 3.16 µM [falling, single point]

Question: For COc1ccc(NC(=O)C(c2ccc(C)cc2)N(C)C(=O)/C=C\c2ccc3c(c2)OCO3)cc1 (centres undefined), which AC50 is on record?
Answer: 3.16 µM [falling, full curve]

Question: Which AC50 does the source give for CCOC(=O)c1ccc(NC(=O)CCc2c(C)nc3c(c(C)nn3-c3ccccc3)c2C)cc1 here?
Answer: 12.6 µM [falling, partial curve]

Question: For COc1cccc(C2=C(C(C)=O)Sc3nncn3N2C(C)=O)c1, which AC50 is on record?
Answer: 31.6 µM [rising, single point] [measured here: IkB-luc green channel]

Question: For Cc1cccc(C(=O)Nc2sc3c(c2C(=O)N2CCCCC2)CCC(C)C3)c1 (centres undefined), which AC50 is on record?
Answer: 12.6 µM [falling, partial curve]

Question: With Cn1c(SCC(=O)N2c3ccccc3Sc3ccc(Cl)cc32)nnc1-c1ccco1 as the compound, how does the AC50 read?
Answer: 39.8 µM [falling, single point]

Question: With Cc1oc2ccc(O)c(CN(C)Cc3ccccc3)c2c1C(=O)Nc1ccccc1 as the compound, how does the AC50 read?
Answer: 12.6 µM [falling, partial curve]

Question: For O=C(CCc1cn(Cc2ccc(F)cc2)c2ccccc12)NCCc1ccc(Cl)cc1, which AC50 is on record?
Answer: 12.6 µM [falling, partial curve]

Question: With CCN(c1ccccc1)c1nnc(NC(=O)Nc2ccc(Br)cc2)s1 as the compound, how does the AC50 read?
Answer: 15.8 µM [falling, partial curve]

Question: With COc1cccc(NC(=O)CSc2nc3ccc(NC(=O)c4cccs4)cc3s2)c1 as the compound, how does the AC50 read?
Answer: 7.94 µM [falling, partial curve]

Question: For Cc1ccc(C(=O)CC2(O)C(=O)N(Cc3ccccc3F)c3ccccc32)cc1 (centres undefined), which AC50 is on record?
Answer: 20 µM [falling, partial curve]

Question: Which AC50 does the source give for Oc1ccc(CNc2ccc(F)cc2)c2cccnc12 here?
Answer: 7.94 µM [falling, partial curve]

Question: With Cc1ccc(NC(=O)Nc2nnc(N3CCCC3)s2)cc1 as the compound, how does the AC50 read?
Answer: 15.8 µM [falling, partial curve]

Question: For Cc1cc(C)cc(NC(=O)CN(c2cc(C(F)(F)F)ccc2Cl)S(=O)(=O)c2ccccc2)c1, which AC50 is on record?
Answer: 25.1 µM [falling, partial curve]

Question: With O=C(CCS(=O)(=O)c1nc(-c2cccs2)cc(C(F)(F)F)n1)Nc1ccc(OC(F)(F)F)cc1 as the compound, how does the AC50 read?
Answer: 2.51 µM [falling, full curve]

Question: Which AC50 does the source give for COC(=O)c1ccccc1NC(=O)C1=CC(c2ccc(C)cc2)=NS(=O)(=O)N1C here?
Answer: 12.6 µM [falling, partial curve]

Question: With COc1cccc(-c2nn(C)c3sc(C(=O)NCc4cc(OC)ccc4OC)cc23)c1 as the compound, how does the AC50 read?
Answer: 3.16 µM [falling, full curve]

Question: For O=C(NC1CC1)c1cccc(Nc2ccc(-c3ccc4c(c3)OCCO4)nn2)c1, which AC50 is on record?
Answer: 3.98 µM [falling, partial curve]

Question: With CC(=O)c1ccc(NC(=O)CCc2c(C)nc3c(c(C)nn3-c3ccc(C)cc3)c2C)cc1 as the compound, how does the AC50 read?
Answer: 10 µM [falling, partial curve]

Question: With CC(=O)Nc1ccc(S(=O)(=O)N2CCN(c3cccc(C)c3C)CC2)cc1 as the compound, how does the AC50 read?
Answer: 12.6 µM [falling, partial curve]

Question: With COc1ccccc1NC(c1ccc(Cl)cc1)c1nnc(-c2cccc(F)c2)o1 (centres undefined) as the compound, how does the AC50 read?
Answer: 15.8 µM [falling, partial curve]

Question: With CC(C)(C)c1ccc(Cn2c(Cc3ccccc3)nc3ccccc32)cc1 as the compound, how does the AC50 read?
Answer: 12.6 µM [falling, partial curve]

Question: With CCOc1ccc(-c2nonc2NC(=O)c2oc3ccc(F)cc3c2C)cc1 as the compound, how does the AC50 read?
Answer: 1 µM [falling, full curve, poor fit]

Question: For Cc1cc(C)n(-c2nncn2NC(=O)c2ccc(Cl)cc2O)n1, which AC50 is on record?
Answer: 15.8 µM [falling, partial curve]

Question: For O=C(COc1ccccc1Cl)Nc1cc(-c2ccccc2F)nn1-c1ccccc1, which AC50 is on record?
Answer: 12.6 µM [rising, single point]

Question: For COc1cccc(NC(=O)CSC2=Nc3ccccc3C3=NC(CC(=O)NC4CCCCC4)C(=O)N23)c1 (centres undefined), which AC50 is on record?
Answer: 0.126 µM [falling, full curve, poor fit]

Question: With COc1cc(OC)c(OC)cc1/C=C/c1nc2cc3ccccc3cc2c(=O)n1-c1ccc(F)cc1F as the compound, how does the AC50 read?
Answer: 0.501 µM [falling, full curve]

Question: For Cc1ccc2c(c1)-c1cc(C)nn1C(c1cc(Br)ccc1O)N2 (centres undefined), which AC50 is on record?
Answer: 20 µM [falling, single point]

Question: For Cc1ccc(/C=N/c2sc3c(c2C#N)CCCCC3)o1, which AC50 is on record?
Answer: 12.6 µM [falling, partial curve]
